The values below come from article PMC6945596.

Chains of the proteins cited; added tags and fusions are not shown.
UniProt Q80SW1: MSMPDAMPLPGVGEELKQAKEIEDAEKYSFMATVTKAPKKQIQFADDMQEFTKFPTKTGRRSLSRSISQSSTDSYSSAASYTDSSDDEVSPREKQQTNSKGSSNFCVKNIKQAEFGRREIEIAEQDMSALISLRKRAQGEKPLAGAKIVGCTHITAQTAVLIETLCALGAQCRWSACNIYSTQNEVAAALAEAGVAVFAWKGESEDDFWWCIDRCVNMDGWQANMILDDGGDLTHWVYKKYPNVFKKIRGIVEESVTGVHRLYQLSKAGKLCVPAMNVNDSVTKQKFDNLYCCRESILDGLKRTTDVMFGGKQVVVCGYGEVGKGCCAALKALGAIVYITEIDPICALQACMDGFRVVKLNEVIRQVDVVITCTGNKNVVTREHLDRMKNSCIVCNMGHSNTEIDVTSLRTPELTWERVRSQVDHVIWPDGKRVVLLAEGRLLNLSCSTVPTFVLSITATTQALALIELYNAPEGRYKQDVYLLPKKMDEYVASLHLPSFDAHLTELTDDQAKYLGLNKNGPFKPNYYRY

Results are given in words; binding and its absence hold for the method and conditions named. Binding seen in cells or lysates may run through a third protein. Some entries that bind do so weakly or less than the wild type.

This test concerns the target T1, sodium-dependent chloride/bicarbonate exchanger Ncbe (mouse (endogenous in choroid plexus)) (UniProt Q5DTL9).
T1 sequence: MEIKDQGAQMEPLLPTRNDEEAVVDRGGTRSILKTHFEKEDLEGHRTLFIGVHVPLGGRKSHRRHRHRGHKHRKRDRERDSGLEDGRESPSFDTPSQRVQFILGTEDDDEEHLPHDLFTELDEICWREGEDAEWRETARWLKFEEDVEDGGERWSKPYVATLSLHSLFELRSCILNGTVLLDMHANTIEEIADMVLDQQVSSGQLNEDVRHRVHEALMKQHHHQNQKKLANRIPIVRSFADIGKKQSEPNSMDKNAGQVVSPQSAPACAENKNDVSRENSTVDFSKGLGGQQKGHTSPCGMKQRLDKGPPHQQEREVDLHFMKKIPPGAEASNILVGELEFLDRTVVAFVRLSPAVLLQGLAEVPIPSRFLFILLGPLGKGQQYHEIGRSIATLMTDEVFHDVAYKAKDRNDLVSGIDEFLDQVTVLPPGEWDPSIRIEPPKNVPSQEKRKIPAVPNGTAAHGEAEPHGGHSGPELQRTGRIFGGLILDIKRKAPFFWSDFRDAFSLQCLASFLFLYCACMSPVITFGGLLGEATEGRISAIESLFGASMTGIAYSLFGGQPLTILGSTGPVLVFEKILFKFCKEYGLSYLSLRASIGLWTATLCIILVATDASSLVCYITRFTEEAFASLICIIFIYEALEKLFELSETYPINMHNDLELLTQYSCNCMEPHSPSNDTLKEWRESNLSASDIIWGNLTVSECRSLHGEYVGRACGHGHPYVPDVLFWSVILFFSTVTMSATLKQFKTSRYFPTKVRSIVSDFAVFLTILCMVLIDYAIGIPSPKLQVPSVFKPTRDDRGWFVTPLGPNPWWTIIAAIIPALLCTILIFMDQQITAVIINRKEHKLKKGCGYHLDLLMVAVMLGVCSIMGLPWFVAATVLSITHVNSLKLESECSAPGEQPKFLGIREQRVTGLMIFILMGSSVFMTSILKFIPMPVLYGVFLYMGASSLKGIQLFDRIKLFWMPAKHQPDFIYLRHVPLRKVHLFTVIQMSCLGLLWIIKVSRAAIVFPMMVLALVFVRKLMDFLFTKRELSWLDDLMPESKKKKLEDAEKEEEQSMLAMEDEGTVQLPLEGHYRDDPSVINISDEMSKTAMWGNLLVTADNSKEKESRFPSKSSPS
The experiment in a line: proximity ligation; Duolink PLA with anti-Ncbe and anti-IRBIT antibodies on paraffin sections of perfusion-fixed mouse brain (choroid plexus); Ncbe ko tissue run in parallel as negative control.

In the case of “IP3R Binding protein released with Inositol 1,4,5-Trisphosphate (IRBIT) (from UniProt Q80SW1 1-530)”, the binding entry is “binds”.
